Reference: US11771729B2, “Maca extract and use thereof” (KAOHSIUNG MEDICAL UNIVERSITY, priority 2021, dated 2023)
At least one compound was matched to its structure with a doubt left.

System: RBL-2H3 cells
Assay: Anti-allergy test: A23187-induced β-hexosaminidase release
Type: cell-based
Conditions: Table 4, isolated compounds; concentration not given (values equal 100 μM column of Table 6)
Protocol: Equivalently divided supernatants (50 μL) of control wells and experimental wells were incubated with an equal volume (50 μL) of […] p-NAG prepared in 0.1 M citrate buffer (pH 4.5), in which the buffer is formed as a matrix of released β-hexosaminidase; the reaction, after 1 hour incubation at 37° C., was stopped by adding 100 μL of termination buffer (0.1M Na2/NaHCO3, pH 10.0), and then, the absorbance at a wavelength of 405 nm was measured with a microplate reader. The percentage of inhibiting RBL-2H3 cells from releasing β-hexosaminidase was calculated as the percentage of control (untreated stimulated cells), and azelastine (20 μM) was used as a positive control. The test results are shown in Tables 4 to 6 below, and the corresponding results are indicated as mean±SEM (the test was repeated 3 times), wherein * denotes p<0.05, ** denotes p<0.01, *** denotes p<0.001; - denotes being untested; and N/A denotes that the specimen forms mycelium added to the medium, and accordingly, the results cannot be proven.

CC(=O)[C@@H]1CCC(=O)N1Cc1ccccc1 [Compound 1, (5S)-acetyl-1-benzylpyrrolidine-2-ketone]
A23187-induced β-hexosaminidase release Inhibition rate (%): 4.0 ± l.7%
